Data taken from patent US6458557B1, “Enhancing growth in gram-positive microorganisms using formate supplementation and inactivation of formate-associated transport proteins” (Genencor International, Inc., priority 1997, dated 2002).
Some of these results come from one statement about several compounds together. At least one compound was matched to its structure with a doubt left.

Test system: Bacillus subtilis (BG125)
Experiment: Metabolic by-products (HPLC) and glucose in shake flask supernatants
Type: cell-based
Conditions: flasks of FIG. 5; 1% SBG (10 g/L glucose); control stopped at 6 g/L
Experimental: Prior to shake flask experiments BG125 was grown from frozen stocks onto LB agar and grown overnight at 37° C. Cells were removed from the plates to 6 mls of SBG1% in test-tubes and grown at 37° C. for three hours. 0.2 mls of the seed culture was used to inoculate a pre-warmed 300 ml nephlometer flask containing 20 mls of the appropriate media. Flasks were incubated at 37° C. (except where indicated) and 300 rpm in a New Brunswick Scientific Shaker. […] The sample was spun in an eppendorf microfuge and 1 ml of supernatant was removed and mixed with 30 μls of perchloric acid HPLC analysis. The remaining supernatant was saved for glucose analysis. All samples were stored at −70° C. until analysis. Medium pH titrations were performed by the stepwise addition of HCl followed by pH measurement. The bactericidal tests of pH and formate on B. subtilis were carried out by growing BG125 as described above in SBG1% to a density of 5×10^6 cfu/ml. The cells were then adjusted to a concentration of 5×10^4 cfu/ml with buffered SBG1% adjusted to the pH indicated, with and without 50 mM formate. Cultures were then incubated at 37° C. with shaking for 3 hours. Samples were taken at 0, 1 2 and 3 hours, serially diluted and plated to LB at 37° C. for determination of cell viability.

O=S(=O)(O)CCCN1CCOCC1 [MOPS, reference compound]
time by which glucose was undetectable: ≤ 450 min
